The source of these data is publication PMC8576121.

The chains behind the UniProt entries cited, without tags or fusion partners. Where a name states a change or a piece, a line headed by the entry shows the natural chain unless it says otherwise.
UniProt D4GZ79: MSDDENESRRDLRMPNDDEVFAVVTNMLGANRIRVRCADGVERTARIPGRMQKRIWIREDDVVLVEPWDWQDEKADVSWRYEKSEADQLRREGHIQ

These are yes or no findings as the source states them, for the method shown. Binding seen in cells or lysates may run through a third protein. Here binding means that the protein was enriched with, or labelled near, the bait; the list need not be complete. For some of these results: A no says only that the protein was not detected with the bait.

Common to all, as to assay: affinity purification with mass spectrometry; N-His6 bait overproduced in H. volcanii; cytoplasmic extract on nickel chelating sepharose at room temperature in 2.1 M NaCl, 20 mM HEPES, 20 mM imidazole; four washes with 30 mM imidazole, elution with 700 mM imidazole; no RNase step, no cross-linking; co-isolated proteins identified by LC-MS/MS; three biological replicates; proteins found in the empty-vector or DHFR controls removed

Test [1] addresses T1, NUDIX family hydrolase/eIF-2B domain protein (Haloferax volcanii) (UniProt D4GTG3).
T1 sequence: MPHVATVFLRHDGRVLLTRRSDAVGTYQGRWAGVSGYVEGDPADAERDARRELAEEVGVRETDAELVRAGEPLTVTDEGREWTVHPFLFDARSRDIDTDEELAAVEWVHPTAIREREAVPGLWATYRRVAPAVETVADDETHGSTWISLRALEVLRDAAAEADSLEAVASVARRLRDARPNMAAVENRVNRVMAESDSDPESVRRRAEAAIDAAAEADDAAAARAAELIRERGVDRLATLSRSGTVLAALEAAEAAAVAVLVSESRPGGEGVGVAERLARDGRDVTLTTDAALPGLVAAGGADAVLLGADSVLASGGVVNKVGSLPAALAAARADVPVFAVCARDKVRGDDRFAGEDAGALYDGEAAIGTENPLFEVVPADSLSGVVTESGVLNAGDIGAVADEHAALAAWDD

Test [2] has as its target T2, translation initiation factor aIF-1A (aIF1A2) (Haloferax volcanii) (UniProt D4GRU5).
T2 sequence: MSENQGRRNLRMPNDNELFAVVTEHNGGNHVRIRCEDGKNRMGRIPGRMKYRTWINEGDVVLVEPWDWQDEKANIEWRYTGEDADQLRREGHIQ

Test [3] deals with T3, translation initiation factor aIF2 gamma subunit (Haloferax volcanii) (UniProt D4GTD4).
T3 sequence: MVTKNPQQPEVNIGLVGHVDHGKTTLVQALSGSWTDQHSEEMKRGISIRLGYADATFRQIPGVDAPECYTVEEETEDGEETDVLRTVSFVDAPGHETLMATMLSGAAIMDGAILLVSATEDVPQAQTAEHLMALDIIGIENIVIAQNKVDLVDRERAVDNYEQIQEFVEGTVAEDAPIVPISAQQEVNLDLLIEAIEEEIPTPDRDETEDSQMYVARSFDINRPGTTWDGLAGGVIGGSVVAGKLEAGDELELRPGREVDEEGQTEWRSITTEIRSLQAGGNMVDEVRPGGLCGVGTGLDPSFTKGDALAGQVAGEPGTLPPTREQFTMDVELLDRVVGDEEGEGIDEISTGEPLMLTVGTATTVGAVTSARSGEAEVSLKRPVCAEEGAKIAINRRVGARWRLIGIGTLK

In test [4] the target is T4, translation initiation factor aIF2 alpha subunit (Haloferax volcanii) (UniProt D4GT46).
T4 sequence: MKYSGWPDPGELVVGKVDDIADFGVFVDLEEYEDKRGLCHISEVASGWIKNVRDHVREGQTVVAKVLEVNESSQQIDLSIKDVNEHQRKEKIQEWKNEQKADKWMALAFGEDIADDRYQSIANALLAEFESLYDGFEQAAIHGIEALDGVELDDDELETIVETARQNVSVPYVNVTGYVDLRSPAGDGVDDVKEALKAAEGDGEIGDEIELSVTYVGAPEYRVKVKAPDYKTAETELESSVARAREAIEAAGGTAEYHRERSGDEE

Test [5] concerns the target T5, translation initiation factor aIF-5B (bacterial-type IF2) (Haloferax volcanii) (UniProt D4GTJ2).
T5 sequence: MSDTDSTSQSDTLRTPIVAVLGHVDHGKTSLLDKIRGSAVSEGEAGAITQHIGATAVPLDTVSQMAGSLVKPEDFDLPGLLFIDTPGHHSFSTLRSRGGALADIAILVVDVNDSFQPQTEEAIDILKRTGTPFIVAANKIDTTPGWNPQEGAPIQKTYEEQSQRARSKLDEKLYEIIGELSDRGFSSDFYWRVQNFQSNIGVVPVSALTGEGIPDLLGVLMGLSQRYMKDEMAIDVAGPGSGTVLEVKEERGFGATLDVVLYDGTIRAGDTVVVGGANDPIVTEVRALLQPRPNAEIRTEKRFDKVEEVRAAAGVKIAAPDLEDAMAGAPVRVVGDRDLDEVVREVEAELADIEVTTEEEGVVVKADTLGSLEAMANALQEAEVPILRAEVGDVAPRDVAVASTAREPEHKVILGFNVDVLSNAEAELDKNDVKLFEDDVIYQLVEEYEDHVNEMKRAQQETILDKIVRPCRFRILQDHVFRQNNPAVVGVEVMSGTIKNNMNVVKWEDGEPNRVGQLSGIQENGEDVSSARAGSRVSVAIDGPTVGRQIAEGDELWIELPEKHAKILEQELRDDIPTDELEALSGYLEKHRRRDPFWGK

Test [6] has as its target translation initiation factor aIF-1A (aIF1A1) (Haloferax volcanii) (UniProt D4GZ79).
The target of test [7] is T6, translation initiation factor aIF2 beta subunit / probable RNA-binding protein (aIF2β-2) (Haloferax volcanii) (UniProt D4GVV8).
T6 sequence: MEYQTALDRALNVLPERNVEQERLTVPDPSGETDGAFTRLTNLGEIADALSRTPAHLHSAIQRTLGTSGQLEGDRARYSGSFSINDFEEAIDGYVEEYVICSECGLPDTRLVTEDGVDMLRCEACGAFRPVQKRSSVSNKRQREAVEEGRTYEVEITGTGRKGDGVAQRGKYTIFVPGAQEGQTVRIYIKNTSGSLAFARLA

Test [8] addresses T7, translation initiation factor aIF2 beta subunit (aIF2β-1) (Haloferax volcanii) (UniProt D4GZP2).
T7 sequence: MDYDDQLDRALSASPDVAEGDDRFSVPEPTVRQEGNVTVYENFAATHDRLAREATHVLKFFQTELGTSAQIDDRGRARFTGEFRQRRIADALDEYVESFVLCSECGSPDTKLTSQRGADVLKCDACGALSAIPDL

B1: eIF-2B domain protein (aIF2Bδ) (protein, UniProt D4GW08 1-282)
chain: MIDETIEEIREMQTHSSSVVAVKATRALAELTERDYATVEEFERDLERNVGALKRANPSHASLYNALQDVLHSVQGEADDLDEARELTLSTIDRVVETVETGKRHAAQQAAATIEDGQTFLTHDYSSTVMEAVELAVADGAQLTAYVTEARPRFLGRKFARELAAIDDVEPHLMVDGASGMFLPGCDRVIIGMDCIVEETLYNRIGTFPLVAAANEVGVPVTVVGSGAKVVDGGFRFENEIRSPSEVMLEPVEGIELENPAYDATPVDLIDEVITDEGVIEF
Turning to B1, the binding result in test [1] is listed as “no binding”.

B2: ribose-1,5-bisphosphate isomerase (proposed new name aIF2Bα) (protein, UniProt D4GV73 1-323)
chain: MDDRVHPEVRRTATEIDTMEIRGAATIADAAARALRTQATESDAADAEAFRAELRATARTLHETRPTAVSLPNALRYVLRDMSSTTVEGLRQSVVDSADEFCARLERAQADLGQVGANRLRDGDTIMTHCHSTDALACVEAAVEQGKHIEAVVKETRPRNQGHITAKRLHELGVPVTLIVDSAARRYLNDVDHVLVGADAVAADGSVINKIGTSGLAVNARERGTPIMVAAQTLKLHPGTMTGHTVDIEMRDTAEVVDDDTLADLGNPTVKNPAFDVTPPRYVDAIVTERGQFPPESIVILMRELFGEGTSEPWAEPSPRAEP
Regarding B2, the binding result in test [2], in test [3], in test [4], in test [5] and in test [6] was “binds” in each case.

B3: translation initiation factor aIF-1A (aIF1A2) (protein, UniProt D4GRU5 1-94)
chain: T2 sequence
Consider B3, for which the binding entry in test [7], in test [3], in test [4] and in test [8] was “no binding” each time.
